{"source": "the supplement of paper PMC8728848", "test_in_all_cases": "glycan array binding signal (z-score within array); higher = stronger binding", "settings_in_all_cases": "glycan notation: IUPAC condensed, linker removed; mutation: D21K", "key": {"[1]": {"molecular_target": "Gal(b1-3)[Fuc(a1-4)]GlcNAc(b1-3)Gal(b1-4)[Fuc(a1-3)]GlcNAc", "procedure,_shortened": "(§1)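 The Consortium for Functional Glycomics database supplied 3228 glycan arrays, of which those lacking an available protein sequence were dropped. The binding signal, a within-array Z-score, was averaged across arrays of the same protein sequence and across linkers. Negative scores can be read as non-binding.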"}, "[2]": {"molecular_target": "Gal(b1-3)[Fuc(a1-4)]GlcNAc(b1-6)GalNAc", "procedure,_shortened": "as §1"}, "[3]": {"molecular_target": "Gal(b1-3)[GlcNAc(b1-6)]GalNAc", "procedure,_shortened": "as §1"}, "[4]": {"molecular_target": "Gal(b1-3)[Neu5Ac(a2-6)]GalNAc", "procedure,_shortened": "as §1"}, "[5]": {"molecular_target": "Gal(b1-3)[Neu5Ac(a2-6)]GlcNAc(b1-4)Gal(b1-4)Glc", "procedure,_shortened": "as §1"}, "[6]": {"molecular_target": "Gal(b1-3)[Neu5Ac(b2-6)]GalNAc", "procedure,_shortened": "as §1"}, "Gal(b1-4)Gal": {"molecular_target": "Gal(b1-4)Gal", "procedure,_shortened": "as §1"}, "[7]": {"molecular_target": "Gal(b1-4)GalNAc(a1-3)[Fuc(a1-2)]Gal(b1-4)GlcNAc", "procedure,_shortened": "as §1"}, "[8]": {"molecular_target": "Gal(b1-4)GalNAc(b1-3)[Fuc(a1-2)]Gal(b1-4)GlcNAc", "procedure,_shortened": "as §1"}, "Gal(b1-4)Glc": {"molecular_target": "Gal(b1-4)Glc", "procedure,_shortened": "as §1"}, "Gal(b1-4)Glc6S": {"molecular_target": "Gal(b1-4)Glc6S", "procedure,_shortened": "as §1"}, "Gal(b1-4)GlcNAc": {"molecular_target": "Gal(b1-4)GlcNAc", "procedure,_shortened": "as §1"}, "[9]": {"molecular_target": "Gal(b1-4)GlcNAc(a1-6)Gal(b1-4)GlcNAc", "procedure,_shortened": "as §1"}, "Gal(b1-4)GlcNAc(b1-2)Man": {"molecular_target": "Gal(b1-4)GlcNAc(b1-2)Man", "procedure,_shortened": "as §1"}, "[10]": {"molecular_target": "Gal(b1-4)GlcNAc(b1-2)Man(a1-3)Man(b1-4)GlcNAc(b1-4)GlcNAc", "procedure,_shortened": "as §1"}, "[11]": {"molecular_target": "Gal(b1-4)GlcNAc(b1-2)Man(a1-3)[Gal(b1-4)GlcNAc(b1-2)Man(a1-6)]Man(b1-4)GlcNAc(b1-4)GlcNAc", "procedure,_shortened": "as §1"}, "[12]": {"molecular_target": "Gal(b1-4)GlcNAc(b1-2)Man(a1-3)[Gal(b1-4)GlcNAc(b1-2)Man(a1-6)]Man(b1-4)GlcNAc(b1-4)[Fuc(a1-6)]GlcNAc", "procedure,_shortened": "as §1"}, "[13]": {"molecular_target": "Gal(b1-4)GlcNAc(b1-2)Man(a1-3)[Gal(b1-4)GlcNAc(b1-2)Man(a1-6)][Gal(b1-4)GlcNAc(b1-4)]Man(b1-4)GlcNAc(b1-4)[Fuc(a1-6)]GlcNAc", "procedure,_shortened": "as §1"}, "[14]": {"molecular_target": "Gal(b1-4)GlcNAc(b1-2)Man(a1-3)[Gal(b1-4)GlcNAc(b1-2)Man(a1-6)][GlcNAc(b1-4)]Man(b1-4)GlcNAc(b1-4)[Fuc(a1-6)]GlcNAc", "procedure,_shortened": "as §1"}, "[15]": {"molecular_target": "Gal(b1-4)GlcNAc(b1-2)Man(a1-3)[GlcNAc(b1-2)Man(a1-6)]Man(b1-4)GlcNAc(b1-4)GlcNAc", "procedure,_shortened": "as §1"}, "[16]": {"molecular_target": "Gal(b1-4)GlcNAc(b1-2)Man(a1-3)[GlcNAc(b1-4)][Gal(b1-4)GlcNAc(b1-2)Man(a1-6)]Man(b1-4)GlcNAc(b1-4)GlcNAc", "procedure,_shortened": "as §1"}, "[17]": {"molecular_target": "Gal(b1-4)GlcNAc(b1-2)Man(a1-3)[Man(a1-6)]Man(b1-4)GlcNAc(b1-4)GlcNAc", "procedure,_shortened": "as §1"}, "[18]": {"molecular_target": "Gal(b1-4)GlcNAc(b1-2)Man(a1-6)Man(b1-4)GlcNAc(b1-4)GlcNAc", "procedure,_shortened": "as §1"}, "[19]": {"molecular_target": "Gal(b1-4)GlcNAc(b1-2)Man(a1-6)[GlcNAc(b1-2)Man(a1-3)]Man(b1-4)GlcNAc(b1-4)GlcNAc", "procedure,_shortened": "as §1"}, "[20]": {"molecular_target": "Gal(b1-4)GlcNAc(b1-2)Man(a1-6)[Man(a1-3)]Man(b1-4)GlcNAc(b1-4)GlcNAc", "procedure,_shortened": "as §1"}, "[21]": {"molecular_target": "Gal(b1-4)GlcNAc(b1-2)[Gal(b1-4)GlcNAc(b1-4)]Man(a1-3)[Gal(b1-4)GlcNAc(b1-2)Man(a1-6)]Man(b1-4)GlcNAc(b1-4)GlcNAc", "procedure,_shortened": "as §1"}}, "note": "The list shows a part of the results.", "data": [{"binder": "KILRGVCKKIMRTFLRRISKKILTGKK", "note": "[C7A (Sus scrofa)]", "values": [{"measurement": "glycan array binding signal (z-score)", "setting": "[1]", "result": -1.26}, {"measurement": "glycan array binding signal (z-score)", "setting": "[2]", "result": -0.177}, {"measurement": "glycan array binding signal (z-score)", "setting": "[3]", "result": -0.867}, {"measurement": "glycan array binding signal (z-score)", "setting": "[4]", "result": -0.301}, {"measurement": "glycan array binding signal (z-score)", "setting": "[5]", "result": 0.817}, {"measurement": "glycan array binding signal (z-score)", "setting": "[6]", "result": -0.443}, {"measurement": "glycan array binding signal (z-score)", "setting": "Gal(b1-4)Gal", "result": -0.595}, {"measurement": "glycan array binding signal (z-score)", "setting": "[7]", "result": -0.837}, {"measurement": "glycan array binding signal (z-score)", "setting": "[8]", "result": -1.14}, {"measurement": "glycan array binding signal (z-score)", "setting": "Gal(b1-4)Glc", "result": -0.133}, {"measurement": "glycan array binding signal (z-score)", "setting": "Gal(b1-4)Glc6S", "result": 0.318}, {"measurement": "glycan array binding signal (z-score)", "setting": "Gal(b1-4)GlcNAc", "result": -0.446}, {"measurement": "glycan array binding signal (z-score)", "setting": "[9]", "result": 0.025}, {"measurement": "glycan array binding signal (z-score)", "setting": "Gal(b1-4)GlcNAc(b1-2)Man", "result": -0.419}, {"measurement": "glycan array binding signal (z-score)", "setting": "[10]", "result": 1.01}, {"measurement": "glycan array binding signal (z-score)", "setting": "[11]", "result": 0.219}, {"measurement": "glycan array binding signal (z-score)", "setting": "[12]", "result": 0.734}, {"measurement": "glycan array binding signal (z-score)", "setting": "[13]", "result": 0.292}, {"measurement": "glycan array binding signal (z-score)", "setting": "[14]", "result": -0.177}, {"measurement": "glycan array binding signal (z-score)", "setting": "[15]", "result": -1.17}, {"measurement": "glycan array binding signal (z-score)", "setting": "[16]", "result": -0.5}, {"measurement": "glycan array binding signal (z-score)", "setting": "[17]", "result": 1.46}, {"measurement": "glycan array binding signal (z-score)", "setting": "[18]", "result": -0.654}, {"measurement": "glycan array binding signal (z-score)", "setting": "[19]", "result": -1.14}, {"measurement": "glycan array binding signal (z-score)", "setting": "[20]", "result": -0.77}, {"measurement": "glycan array binding signal (z-score)", "setting": "[21]", "result": -0.884}]}]}
